Measurements from “University of Dundee, Small-Polar-MMV Screening Library” (2021), ChEMBL document CHEMBL3988442.

The chains behind the UniProt entries cited, without tags or fusion partners. Residues count along the entry.
UniProt A4I591, 1-473: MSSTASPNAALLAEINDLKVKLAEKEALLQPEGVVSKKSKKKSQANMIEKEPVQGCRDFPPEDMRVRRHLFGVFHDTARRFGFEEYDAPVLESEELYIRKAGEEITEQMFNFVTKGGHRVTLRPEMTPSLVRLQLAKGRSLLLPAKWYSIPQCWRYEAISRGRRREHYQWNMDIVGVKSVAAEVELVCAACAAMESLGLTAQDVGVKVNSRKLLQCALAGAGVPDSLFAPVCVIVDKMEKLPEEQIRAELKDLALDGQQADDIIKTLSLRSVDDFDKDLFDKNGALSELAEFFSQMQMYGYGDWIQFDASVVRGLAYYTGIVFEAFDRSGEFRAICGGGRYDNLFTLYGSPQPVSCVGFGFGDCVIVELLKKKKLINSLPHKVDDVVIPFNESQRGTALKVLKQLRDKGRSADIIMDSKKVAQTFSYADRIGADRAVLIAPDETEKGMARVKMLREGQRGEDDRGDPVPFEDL
UniProt P9WPC5, whole entry: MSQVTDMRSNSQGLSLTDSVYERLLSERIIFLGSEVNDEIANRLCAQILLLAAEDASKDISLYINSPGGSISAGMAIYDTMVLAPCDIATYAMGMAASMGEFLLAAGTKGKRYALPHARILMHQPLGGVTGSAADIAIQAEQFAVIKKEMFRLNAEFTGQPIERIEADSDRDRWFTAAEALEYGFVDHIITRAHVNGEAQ
UniProt P9WPC3, whole entry partner: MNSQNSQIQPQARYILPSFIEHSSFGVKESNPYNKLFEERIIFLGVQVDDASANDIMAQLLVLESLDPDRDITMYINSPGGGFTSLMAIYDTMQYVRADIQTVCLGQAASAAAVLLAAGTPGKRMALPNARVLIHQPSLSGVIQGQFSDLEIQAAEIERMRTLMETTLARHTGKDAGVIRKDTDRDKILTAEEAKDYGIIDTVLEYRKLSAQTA

Values are the deposited “Percent Effect”, in %. How 0% and 100% were set is not recorded. Most values in the screen are low, and negative values occur. This is an unselected part of the compounds tested. A dash means the value is not listed here; it may have been measured.

A: 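Histidine-tRNA ligase, Leishmania infantum (UniProt A4I591). Enzyme assay of histidyl-tRNA synthetase; the read-out is not stated. Concentration: 30 µM. Direction is inferred from retests: higher values go with stronger inhibition. The assay is labelled LdHisRS but filed under L. infantum. Of about 69,000 compounds tested this way, about 410 (0.6%) reached 50% or more in at least one test.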
B: 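Assay of Toxoplasma gondii numbers, read through their beta-galactosidase reporter with a colour substrate. Compounds at 10 µM. Higher reads as fewer parasites (inferred from which compounds were picked for retests). Size under these conditions: about 67,000 compounds, about 260 of them at 50% or above in at least one test.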
C: 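ClpP1P2, Mycobacterium tuberculosis (UniProt P9WPC5 and UniProt P9WPC3). Protease assay of ClpP1P2, read by the AMC dye that it sets free. Compounds at 50 µM. Higher reads as stronger inhibition, judged from the few compounds that gave an IC50. Most other retested compounds had strongly negative values. Size under these conditions: about 69,000 compounds, about 10 of them at 50% or above in at least one test.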
D: 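Whole-parasite assay of Trypanosoma brucei over 72 hours; the read-out is not stated. Tested at 30 µM. Direction is inferred from retests: higher values go with stronger inhibition. Values scatter widely below zero; nearly all retest evidence comes from the higher of the two concentrations used. About 64,000 compounds were tested under these conditions; 1.5% (about 940) showed 50% or more at least once.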
E: 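Cell assay of Leishmania donovani living inside macrophages; the read-out is not stated. Tested at 30 µM. Direction is inferred from retests: higher values go with stronger inhibition. Of about 69,000 compounds tested this way, about 1,000 (1.5%) reached 50% or more in at least one test.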

{"compound": "[H][C@]12CC[C@@]3(N=C(CC)N(CC(C)C)C3=O)[C@@]1([H])CN(S(=O)(=O)CC)C2", "B": -7.982, "D": 41.02, "E": 8.479}
{"compound": "[H][C@@]12CCCO[C@]1([H])[C@H](N(C)Cc1ccco1)CN(Cc1ccoc1)C2", "B": 4.697, "D": 26.68, "E": 18.17}
{"compound": "CS(=O)(=O)CCC(=O)Nc1nccn1Cc1ccccc1Cl", "A": 24.1, "B": -6.296, "C": -12.29, "D": 13.04, "E": 11.57}
{"compound": "COc1ccccc1CNC(=O)N1CCCC(c2nncn2C)C1", "stereo": "configuration not stated", "A": 22.73, "B": -3.076, "C": 3.7, "D": 29.17, "E": 2.661}
{"compound": "Cc1ncsc1C(=O)N(Cc1ccccc1)C1CC1", "A": 15.74, "B": -22.69, "C": -12.41, "D": 4.595, "E": 11.43}
{"compound": "Cc1cnn(CC(C)NCc2ccc(OCc3cccnc3)cc2)c1", "stereo": "configuration not stated", "A": 18.26, "B": -1.807, "C": -18.83, "D": 5.922, "E": 8.892}
{"compound": "COc1nccc(N2CC[C@H](CO)[C@@H](O)C2)c1C#N", "A": 14.67, "B": -5.031, "C": 10.47, "D": 2.157, "E": 31.33}
{"compound": "O=c1[nH]c2c(-c3ccccn3)nsc2c(=O)n1CC1CC1", "A": 24.39, "B": 3.557, "C": 2.564, "D": -14.2, "E": 29.16}
{"compound": "O=C(O)C(F)(F)F.O=C(O)C(F)(F)F.O=C1COC2(CCN(Cc3cccnc3)CC2)CN1", "B": -14.96, "D": -2.458, "E": 22.41}
{"compound": "O=C(COCC1CC[C@H]2[C@H](CCN2c2ncccn2)O1)N1CCCC1", "stereo": "some centres not stated", "A": 11.29, "C": -12.03}
{"compound": "CCCN1CCN(C(=O)C(C)n2cc(Br)cn2)CC1", "stereo": "configuration not stated", "A": 14.15, "B": 16.95, "C": -0.4918, "D": 0.5504, "E": 3.586}
{"compound": "Cc1ccc(OC[C@@H]2CNC[C@H](C(=O)NCC3CCCO3)C2)cn1", "stereo": "some centres not stated", "A": 12.12, "B": -9.411, "C": -6.986, "D": 7.109, "E": 11.58}
{"compound": "CCC1CN(c2nnc(C)c(C)c2C#N)CCO1", "stereo": "configuration not stated", "A": 42.4, "B": 0.7057, "C": 23.58, "D": 7.09, "E": 7.086}
{"compound": "Cc1cc(C)n(CNc2nonc2C(N)=O)n1", "A": 8.247, "B": 7.511, "C": 20.42, "D": -16.1, "E": 15.87}
{"compound": "CC(NC(=O)NC1CCN(Cc2ccncc2)CC1)c1ccccc1F", "stereo": "configuration not stated", "A": 17.05, "B": -9.85, "C": -6.196, "D": -2.789, "E": 3.543}
{"compound": "CC(C)NC(=O)C1CN(Cc2ccc(F)cc2)CC12CCOCC2", "stereo": "configuration not stated", "A": 28.21, "C": -0.5527}
{"compound": "COc1ccccc1N1CCC(CNC(=O)CN2CSCC2=O)C1", "stereo": "configuration not stated", "A": 13.33, "B": 4.556, "C": -0.6217, "D": 1.694, "E": -4.04}
{"compound": "CS(=O)(=O)c1cnc(N2CCCC2)nc1C1CCN(C(=O)C2CC2)CC1", "A": 8.054, "B": 1.415, "C": -15.84, "D": 11.26, "E": -33.14}
{"compound": "CC(C)NC(=O)COc1cccc(-c2nc(C(C)C)no2)c1", "A": 0, "B": 32.54, "C": 5.657, "D": -4.67, "E": -8.655}
{"compound": "O=C(NCC1(O)CCOC1)c1ccccc1Cl", "stereo": "configuration not stated", "A": 5.128, "B": -5.33, "C": 5.628, "E": -2.665}
{"compound": "CCN(Cc1ccco1)C(C)c1nc(C(C)(C)C)no1", "stereo": "configuration not stated", "A": 4.286, "B": -21.6, "C": -4.396, "D": -45.42, "E": 17.51}
{"compound": "COc1ccc(NC(=O)C2CC(=O)N(C)C2)cn1", "stereo": "configuration not stated", "A": 12.5, "B": -19.76, "C": -2.678, "D": -9.954, "E": 17.89}
{"compound": "COCCN1CCOCC2(C1)CN(C(=O)c1conc1C)CCO2.O=C(O)C(F)(F)F", "stereo": "configuration not stated", "B": -18.12, "D": -16.54, "E": 12.86}
{"compound": "O=C(O)CC(CC(=O)NCCc1ccsc1)c1cccs1", "stereo": "configuration not stated", "A": 25.97, "B": -6.791, "C": -21.59, "D": 6.576, "E": -36.3}
{"compound": "CCN(Cc1cccc(C(=O)Nc2ncc(C)s2)c1)[C@H]1COC[C@@H]1O", "A": 16.42, "B": -2.645, "C": -5.905, "D": -12.07, "E": -36.91}
{"compound": "FC(F)(F)Cn1cc(NCc2cscn2)cn1", "A": 0.9009, "B": -1.364, "C": -10.16, "D": -1.357, "E": 4.154}

The first 3 entries again:

Compound,A,B,C,D,E
[H][C@]12CC[C@@]3(N=C(CC)N(CC(C)C)C3=O)[C@@]1([H])CN(S(=O)(=O)CC)C2,-,-7.982,-,41.02,8.479
[H][C@@]12CCCO[C@]1([H])[C@H](N(C)Cc1ccco1)CN(Cc1ccoc1)C2,-,4.697,-,26.68,18.17
CS(=O)(=O)CCC(=O)Nc1nccn1Cc1ccccc1Cl,24.1,-6.296,-12.29,13.04,11.57